The results in this text go back to US20210386754A1, “COMPOSITIONS AND METHODS FOR TREATING ATHEROSCLEROTIC VASCULAR DISEASE” (AUGUSTA UNIVERSITY RESEARCH INSTITUTE, INC., priority 2020, published 2021).

Data set [1] deals with hypercholesterolemic mice (PCSK9-AAV-mediated LDLR knockdown). The data set is described as follows: Atherosclerosis model: PCSK9-AAV, partial LCA ligation, Western diet. In kind it is in vivo, mouse.
The subject of another data set is THP-1 macrophages. The data set is described as follows: LDL oxidation by agarose gel electrophoresis of conditioned media. In kind it is cell-based, human. The note with it: M-CSF 100 ng/mL or PDGF 200 ng/mL, 50 μg/mL nLDL, 24 hours.

`CCN(c1nc(N)c(C(=O)N=C(N)N)nc1Cl)C(C)C` [EIPA, 5-(N-ethyl-N-isopropyl)amiloride]: the Plasma cholesterol levels result in data set [1] (EIPA vs vehicle, WT and CD36-/-/SR-A-/- mice) is given as “not different”. As to PDGF, the “relative electrophoretic mobility (REM) of LDL from conditioned media vs negative control nLDL” value in the data set on THP-1 macrophages is given as “not different”. On to `CN(C)CCCN1c2ccccc2CCc2ccccc21` [imipramine], for which, in data set [1] (imipramine-treated vs control mice), the total cholesterol levels entry is “no significant differences”.

B1: M-CSF: macrophage colony-stimulating factor, physiological stimulator of macropinocytosis (protein, UniProt P09603 33-554, looked up)
Macrophage colony-stimulating …: EEVSEYCSHMIGSGHLQSLQRLIDSQMETSCQITFEFVDQEQLKDPVCYLKKAFLLVQDIMEDTMRFRDNTPNAIAIVQLQELSLRLKSCFTKDYEEHDKACVRTFYETPLQLLEKVKNVFNETKNLLDKDWNIFSKNCNNSFAECSSQDVVTKPDCNCLYPKAIPSSDPASVSPHQPLAPSMAPVAGLTWEDSEGTEGSSLLPGEQPLHTVDPGSAKQRPPRSTCQSFEPPETPVVKDSTIGGSPQPRPSVGAFNPGMEDILDSAMGTNWVPEEASGEASEIPVPQGTELSPSRPGGGSMQTEPARPSNFLSASSPLPASAKGQQPADVTGTALPRVGPVRPTGQDWNHTPQKTDHPSALLRDPPEPGSPRISSLRPQGLSNPSTLSAQPQLSRSHSSGSVLPLGELEGRRSTRDRRSPAEPEGGPASEGAARPLPRFNSVPLTDTGHERQSEGSFSPQLQESVFHLLVPSVILVLLAVGGLLFYRWRRRSHQEPQRADSPLEQPEGSPLTQDDRQVELPV
For B1, the “relative electrophoretic mobility (REM) of LDL from conditioned media vs negative control nLDL” value with THP-1 macrophages is “not different”.
